# Data published in the supplement of paper PMC10849652.
# By UniProt entry, the sequences of proteins in these tests, tags left out. Where a name states a change or a piece, a line headed by the entry shows the natural chain unless it says otherwise.
# UniProt Q9BW04: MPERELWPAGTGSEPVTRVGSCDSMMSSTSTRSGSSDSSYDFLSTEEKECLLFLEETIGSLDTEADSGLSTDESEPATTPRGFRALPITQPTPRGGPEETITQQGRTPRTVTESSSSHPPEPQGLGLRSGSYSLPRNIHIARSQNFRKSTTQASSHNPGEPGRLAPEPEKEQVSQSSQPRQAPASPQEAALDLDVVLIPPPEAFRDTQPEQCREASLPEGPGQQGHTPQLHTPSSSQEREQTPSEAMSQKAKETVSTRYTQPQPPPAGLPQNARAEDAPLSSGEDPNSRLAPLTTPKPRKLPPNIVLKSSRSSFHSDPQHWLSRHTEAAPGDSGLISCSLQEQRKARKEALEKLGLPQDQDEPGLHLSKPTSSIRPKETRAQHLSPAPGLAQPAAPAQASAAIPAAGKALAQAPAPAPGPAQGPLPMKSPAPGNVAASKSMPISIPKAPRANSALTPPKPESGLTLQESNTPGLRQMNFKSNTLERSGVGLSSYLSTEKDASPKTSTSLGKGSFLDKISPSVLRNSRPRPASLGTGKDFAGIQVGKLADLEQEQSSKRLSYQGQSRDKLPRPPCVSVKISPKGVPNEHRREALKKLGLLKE
# UniProt Q93073: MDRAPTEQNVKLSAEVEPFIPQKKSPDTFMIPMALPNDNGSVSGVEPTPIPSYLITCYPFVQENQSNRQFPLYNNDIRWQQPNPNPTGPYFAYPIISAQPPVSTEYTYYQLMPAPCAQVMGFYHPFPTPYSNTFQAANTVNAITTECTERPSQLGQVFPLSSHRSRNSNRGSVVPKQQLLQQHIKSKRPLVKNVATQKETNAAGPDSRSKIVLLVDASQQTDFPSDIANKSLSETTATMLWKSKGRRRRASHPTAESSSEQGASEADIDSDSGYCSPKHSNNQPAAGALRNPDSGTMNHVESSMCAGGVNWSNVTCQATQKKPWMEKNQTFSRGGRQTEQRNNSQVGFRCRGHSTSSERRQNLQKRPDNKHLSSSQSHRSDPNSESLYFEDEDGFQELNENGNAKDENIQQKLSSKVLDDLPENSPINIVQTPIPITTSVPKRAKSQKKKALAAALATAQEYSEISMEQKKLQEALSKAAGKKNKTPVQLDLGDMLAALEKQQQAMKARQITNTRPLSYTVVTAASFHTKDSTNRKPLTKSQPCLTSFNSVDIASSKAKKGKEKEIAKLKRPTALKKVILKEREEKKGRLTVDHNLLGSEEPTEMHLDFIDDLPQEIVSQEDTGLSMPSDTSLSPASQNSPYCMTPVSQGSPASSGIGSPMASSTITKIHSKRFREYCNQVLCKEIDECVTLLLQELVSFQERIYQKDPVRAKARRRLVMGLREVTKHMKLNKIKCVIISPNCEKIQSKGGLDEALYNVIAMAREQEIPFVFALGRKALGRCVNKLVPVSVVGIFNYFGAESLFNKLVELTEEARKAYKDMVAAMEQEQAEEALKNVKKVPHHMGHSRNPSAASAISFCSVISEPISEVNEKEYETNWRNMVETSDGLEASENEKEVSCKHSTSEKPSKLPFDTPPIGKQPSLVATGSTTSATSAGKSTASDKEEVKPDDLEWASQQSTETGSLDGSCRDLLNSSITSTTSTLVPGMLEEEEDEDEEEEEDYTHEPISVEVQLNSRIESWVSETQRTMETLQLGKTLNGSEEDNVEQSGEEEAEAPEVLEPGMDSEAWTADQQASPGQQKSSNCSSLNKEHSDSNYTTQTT
# UniProt O15127: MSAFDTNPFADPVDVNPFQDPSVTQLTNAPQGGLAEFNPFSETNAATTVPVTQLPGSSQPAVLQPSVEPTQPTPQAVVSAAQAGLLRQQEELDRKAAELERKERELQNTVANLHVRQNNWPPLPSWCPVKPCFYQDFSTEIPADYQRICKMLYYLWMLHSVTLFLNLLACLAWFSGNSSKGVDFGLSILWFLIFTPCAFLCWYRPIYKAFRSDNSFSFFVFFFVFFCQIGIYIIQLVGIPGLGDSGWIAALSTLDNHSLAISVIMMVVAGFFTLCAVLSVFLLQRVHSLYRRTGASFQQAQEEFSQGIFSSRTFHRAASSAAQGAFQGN
# UniProt Q9UPN6: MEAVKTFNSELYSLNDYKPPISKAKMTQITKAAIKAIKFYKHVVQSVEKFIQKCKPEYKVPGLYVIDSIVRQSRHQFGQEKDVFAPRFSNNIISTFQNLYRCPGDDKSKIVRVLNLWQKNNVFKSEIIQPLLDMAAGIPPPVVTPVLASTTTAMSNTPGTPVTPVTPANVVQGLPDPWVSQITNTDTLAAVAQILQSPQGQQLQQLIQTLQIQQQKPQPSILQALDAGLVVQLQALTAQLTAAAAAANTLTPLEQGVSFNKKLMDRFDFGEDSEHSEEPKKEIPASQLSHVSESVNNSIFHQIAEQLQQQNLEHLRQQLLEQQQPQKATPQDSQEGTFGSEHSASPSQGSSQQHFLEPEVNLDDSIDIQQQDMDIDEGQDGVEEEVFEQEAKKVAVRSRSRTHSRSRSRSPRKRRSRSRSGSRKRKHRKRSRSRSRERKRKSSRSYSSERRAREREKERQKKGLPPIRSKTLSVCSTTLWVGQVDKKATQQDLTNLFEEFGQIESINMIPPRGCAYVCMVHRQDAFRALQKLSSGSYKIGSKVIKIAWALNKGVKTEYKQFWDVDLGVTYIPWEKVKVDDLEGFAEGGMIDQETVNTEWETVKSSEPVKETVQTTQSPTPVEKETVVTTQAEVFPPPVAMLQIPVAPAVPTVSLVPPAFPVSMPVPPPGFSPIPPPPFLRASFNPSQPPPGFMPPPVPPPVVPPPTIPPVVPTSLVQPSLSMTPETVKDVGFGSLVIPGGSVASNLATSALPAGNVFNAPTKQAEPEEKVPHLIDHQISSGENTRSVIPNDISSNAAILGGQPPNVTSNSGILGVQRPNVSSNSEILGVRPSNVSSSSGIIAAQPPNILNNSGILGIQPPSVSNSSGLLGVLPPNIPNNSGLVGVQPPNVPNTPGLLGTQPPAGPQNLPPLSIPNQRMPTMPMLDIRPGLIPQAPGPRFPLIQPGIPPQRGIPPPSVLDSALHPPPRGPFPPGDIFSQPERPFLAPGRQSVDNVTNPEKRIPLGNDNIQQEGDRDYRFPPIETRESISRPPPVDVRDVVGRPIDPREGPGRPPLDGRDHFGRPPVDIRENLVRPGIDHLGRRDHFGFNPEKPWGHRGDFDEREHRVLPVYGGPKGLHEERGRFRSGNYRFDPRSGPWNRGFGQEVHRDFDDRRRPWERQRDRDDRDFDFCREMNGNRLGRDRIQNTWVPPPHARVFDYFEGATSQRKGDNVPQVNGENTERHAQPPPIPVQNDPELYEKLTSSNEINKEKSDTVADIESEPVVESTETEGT
# UniProt O43819: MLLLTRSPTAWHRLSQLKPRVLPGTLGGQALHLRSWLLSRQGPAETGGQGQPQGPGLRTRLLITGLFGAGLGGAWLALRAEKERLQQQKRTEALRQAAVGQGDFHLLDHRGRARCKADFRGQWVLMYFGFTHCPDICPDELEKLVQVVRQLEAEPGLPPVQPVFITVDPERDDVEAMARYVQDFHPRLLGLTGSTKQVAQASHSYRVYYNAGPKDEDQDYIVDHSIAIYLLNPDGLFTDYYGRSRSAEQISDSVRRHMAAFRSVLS
# UniProt Q14160: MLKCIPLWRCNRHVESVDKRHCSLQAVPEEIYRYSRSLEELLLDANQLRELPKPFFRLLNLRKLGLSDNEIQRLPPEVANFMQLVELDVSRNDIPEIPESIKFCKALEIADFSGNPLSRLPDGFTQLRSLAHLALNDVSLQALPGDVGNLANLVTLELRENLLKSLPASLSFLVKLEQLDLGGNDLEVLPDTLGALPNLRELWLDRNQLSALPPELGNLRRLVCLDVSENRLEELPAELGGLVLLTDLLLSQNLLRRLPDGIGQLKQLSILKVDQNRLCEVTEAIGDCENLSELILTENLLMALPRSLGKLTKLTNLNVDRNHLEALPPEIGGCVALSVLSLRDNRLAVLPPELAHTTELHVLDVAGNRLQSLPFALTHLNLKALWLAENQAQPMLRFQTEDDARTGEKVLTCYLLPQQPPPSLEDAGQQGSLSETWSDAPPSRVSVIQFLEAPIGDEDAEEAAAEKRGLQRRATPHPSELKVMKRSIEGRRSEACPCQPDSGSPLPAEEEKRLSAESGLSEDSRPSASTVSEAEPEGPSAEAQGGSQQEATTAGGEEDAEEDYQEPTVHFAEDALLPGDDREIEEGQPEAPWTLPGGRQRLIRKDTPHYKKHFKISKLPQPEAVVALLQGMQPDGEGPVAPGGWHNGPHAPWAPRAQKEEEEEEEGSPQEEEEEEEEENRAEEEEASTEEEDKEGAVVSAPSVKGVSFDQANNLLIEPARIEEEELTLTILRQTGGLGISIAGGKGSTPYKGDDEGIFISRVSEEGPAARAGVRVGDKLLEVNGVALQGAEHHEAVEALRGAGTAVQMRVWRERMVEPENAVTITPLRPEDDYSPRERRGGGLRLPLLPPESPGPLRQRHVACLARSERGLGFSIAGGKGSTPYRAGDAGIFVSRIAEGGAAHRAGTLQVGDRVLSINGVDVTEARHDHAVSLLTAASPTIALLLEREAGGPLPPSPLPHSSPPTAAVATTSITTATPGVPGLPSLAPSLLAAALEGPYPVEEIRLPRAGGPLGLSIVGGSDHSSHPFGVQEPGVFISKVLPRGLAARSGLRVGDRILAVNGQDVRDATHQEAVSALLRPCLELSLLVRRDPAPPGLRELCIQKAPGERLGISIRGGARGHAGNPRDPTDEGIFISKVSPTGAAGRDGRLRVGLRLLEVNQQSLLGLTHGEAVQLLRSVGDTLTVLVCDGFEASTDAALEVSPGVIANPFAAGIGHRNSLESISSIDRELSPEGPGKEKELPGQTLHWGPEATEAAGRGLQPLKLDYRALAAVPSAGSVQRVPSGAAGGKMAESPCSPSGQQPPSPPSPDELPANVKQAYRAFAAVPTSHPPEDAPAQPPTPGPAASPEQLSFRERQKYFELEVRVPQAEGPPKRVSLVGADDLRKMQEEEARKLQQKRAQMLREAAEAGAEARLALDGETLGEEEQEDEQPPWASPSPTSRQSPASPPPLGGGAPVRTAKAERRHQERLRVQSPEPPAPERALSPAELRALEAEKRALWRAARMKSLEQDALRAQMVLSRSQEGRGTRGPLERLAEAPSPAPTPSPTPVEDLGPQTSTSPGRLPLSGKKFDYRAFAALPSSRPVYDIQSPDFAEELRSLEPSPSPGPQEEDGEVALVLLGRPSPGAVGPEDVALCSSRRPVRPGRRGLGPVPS
# UniProt Q8WTV0: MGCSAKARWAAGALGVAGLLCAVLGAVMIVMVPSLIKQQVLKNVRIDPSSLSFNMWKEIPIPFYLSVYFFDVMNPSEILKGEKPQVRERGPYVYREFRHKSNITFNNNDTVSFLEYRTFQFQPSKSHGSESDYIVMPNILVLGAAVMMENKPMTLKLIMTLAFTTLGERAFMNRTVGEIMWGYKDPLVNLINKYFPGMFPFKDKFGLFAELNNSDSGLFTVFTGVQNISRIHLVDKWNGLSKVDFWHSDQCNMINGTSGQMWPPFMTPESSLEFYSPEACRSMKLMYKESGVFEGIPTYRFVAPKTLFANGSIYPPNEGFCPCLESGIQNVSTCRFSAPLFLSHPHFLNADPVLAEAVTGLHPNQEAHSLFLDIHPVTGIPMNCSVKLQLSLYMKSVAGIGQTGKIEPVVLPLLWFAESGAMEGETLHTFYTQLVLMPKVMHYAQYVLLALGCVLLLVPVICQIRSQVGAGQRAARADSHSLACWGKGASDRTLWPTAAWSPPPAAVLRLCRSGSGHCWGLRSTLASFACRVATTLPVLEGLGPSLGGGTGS
# UniProt P49903: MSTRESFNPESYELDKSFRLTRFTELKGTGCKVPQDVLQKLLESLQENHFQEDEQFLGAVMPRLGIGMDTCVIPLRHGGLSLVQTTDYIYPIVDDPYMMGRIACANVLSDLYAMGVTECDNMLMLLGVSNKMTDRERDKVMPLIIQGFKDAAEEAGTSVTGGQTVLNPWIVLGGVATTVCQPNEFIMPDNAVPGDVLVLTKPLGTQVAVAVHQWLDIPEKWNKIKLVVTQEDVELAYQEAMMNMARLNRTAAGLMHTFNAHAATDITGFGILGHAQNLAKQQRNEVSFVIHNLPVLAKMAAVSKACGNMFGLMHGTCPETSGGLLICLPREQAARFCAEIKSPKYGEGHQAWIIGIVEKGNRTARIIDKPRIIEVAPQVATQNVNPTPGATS
# UniProt P55735: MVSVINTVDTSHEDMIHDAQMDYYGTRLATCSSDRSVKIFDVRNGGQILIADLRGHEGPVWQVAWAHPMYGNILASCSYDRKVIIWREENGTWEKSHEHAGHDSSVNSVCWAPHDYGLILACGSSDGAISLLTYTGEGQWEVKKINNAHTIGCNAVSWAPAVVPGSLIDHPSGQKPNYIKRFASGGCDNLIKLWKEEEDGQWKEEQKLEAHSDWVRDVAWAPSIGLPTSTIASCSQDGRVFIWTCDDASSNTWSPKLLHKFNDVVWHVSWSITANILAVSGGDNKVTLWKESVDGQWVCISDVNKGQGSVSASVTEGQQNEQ
# Some of the results follow.
# Legend:
# Assay in all cases: log2 fold change, soluble protein after heating vs DMSO (PISA); higher = thermal stabilisation; K562 lysate, 10 uM; active = over 0.2 and 3.5 SD of the protein, either way, in both replicates (recomputed)
# ibrutinib = compound: C=CC(=O)N1CCC[C@@H](n2nc(-c3ccc(Oc4ccccc4)cc3)c3c(N)ncnc32)C1 [ibrutinib]
# Outline: (§1)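 K562 pellets were dounce-homogenised in PBS pH 7.4 with 1 mM MgCl2, and the crude extract at 1 mg/mL protein was treated with 10 μM compound for 30 min. Aliquots were heated for 3 min across 48°C-58°C, pooled, and brought to 0.5% NP-40 at 4°C; soluble protein was the supernatant after 21,000xg for 90 min. Soluble protein was quantified by TMTpro 16plex LC-MS/MS with channel sums equalised, and reported as log2 fold change in thermal stability against DMSO controls, with values from duplicates.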
# [1] = compound: CC(=O)c1cnc2ccc(-c3cc(Cl)c(O)c(Cl)c3)nc2c1N[C@H]1CC[C@H](CN(C)C)CC1
# Outline: as §1
# ralimetinib = compound: CC(C)(C)Cn1c(N)nc2ccc(-c3[nH]c(C(C)(C)C)nc3-c3ccc(F)cc3)nc21 [ralimetinib]
# Outline: as §1
# [2] = compound: CC(C)(O)CC(=O)NCCn1ccc2ncnc(Nc3ccc(Oc4cccc(C(F)(F)F)c4)c(Cl)c3)c21
# Outline: as §1
# [3] = compound: CC(C)C1=C2N=C(C=C(N2N=C1)NCC3=CC=CC=C3)NCCCCCCN
# Outline: as §1
# [4] = compound: CC1=C(C(CC(=O)N1)C2=CC=C(C=C2)C(F)(F)F)C(=O)NC3=C(C=C4C(=C3)C=NN4)F
# Outline: as §1
# [5] = compound: CC1=C(C2=C(C=C1)C(=O)C3=CC=CC=C3N2CCCN)C
# Outline: as §1
# [6] = compound: CC1=C(C=C(C=C1)NC(=O)C2=CC(=CC=C2)C(C)(C)C#N)NC3=CC4=C(C=C3)N=CN(C4=O)C
# Outline: as §1
# [7] = compound: CC1=C(C=C(C=C1)NC(=O)C2=CC(=CC=C2)N(C)C)NC(=O)C3=CC=C(C=C3)O
# Outline: as §1
# [8] = compound: CC1=CC=C(C=C1)SC2=C3C=C(SC3=CN=C2)C(=O)N
# Outline: as §1
# vemurafenib = compound: CCCS(=O)(=O)Nc1ccc(F)c(C(=O)c2c[nH]c3ncc(-c4ccc(Cl)cc4)cc23)c1F [vemurafenib]
# Outline: as §1
# [9] = compound: CCCS(=O)(=O)Nc1ccc(F)c(C(=O)c2c[nH]c3ncc(Cl)cc23)c1F
# Outline: as §1
# barasertib = compound: CCN(CCCOc1ccc2c(Nc3cc(CC(=O)Nc4cccc(F)c4)[nH]n3)ncnc2c1)CCOP(=O)(O)O [barasertib]
# Outline: as §1
# [10] = compound: CC[C@@H]1C(=O)N(C)c2cnc(Nc3ccc(C(=O)NC4CCN(C)CC4)cc3OC)nc2N1C1CCCC1
# Outline: as §1
# volasertib = compound: CC[C@@H]1C(=O)N(C)c2cnc(Nc3ccc(C(=O)N[C@H]4CC[C@H](N5CCN(CC6CC6)CC5)CC4)cc3OC)nc2N1C(C)C [volasertib]
# Outline: as §1
# [11] = compound: CCn1c(C(=O)N(C2CC2)C2CC2)cc2c3c(ncn3C)c(Nc3cc(C)n(C)n3)nc21
# Outline: as §1
# [12] = compound: CCn1cc(-c2ccnc3[nH]c(-c4cccc(CN(C)C)c4)cc23)c(-c2ccc(NC(=O)N(C)C)cc2)n1
# Outline: as §1
# [13] = compound: CN1CCC(CNc2ccc3ncc(-c4cccc(OC(F)(F)F)c4)n3n2)CC1
# Outline: as §1
# saracatinib = compound: CN1CCN(CCOc2cc(OC3CCOCC3)c3c(Nc4c(Cl)ccc5c4OCO5)ncnc3c2)CC1 [saracatinib]
# Outline: as §1
# sotrastaurin = compound: CN1CCN(c2nc(C3=C(c4c[nH]c5ccccc45)C(=O)NC3=O)c3ccccc3n2)CC1 [sotrastaurin]
# Outline: as §1
Target,log2 fold change (ibrutinib),log2 fold change [1],log2 fold change (ralimetinib),log2 fold change [2],log2 fold change [3],log2 fold change [4],log2 fold change [5],log2 fold change [6],log2 fold change [7],log2 fold change [8],log2 fold change (vemurafenib),log2 fold change [9],log2 fold change (barasertib),log2 fold change [10],log2 fold change (volasertib),log2 fold change [11],log2 fold change [12],log2 fold change [13],log2 fold change (saracatinib),log2 fold change (sotrastaurin)
SCIN (UniProt Q9Y6U3),inactive: -0.008,inactive: 0.021,inactive: -0.006,inactive: -0.015,inactive: -0.021,inactive: 0.012,inactive: -0.004,inactive: 0.026,inactive: -0.016,inactive: 0.009,inactive: -0.011,inactive: 0.018,inactive: 0.021,inactive: 0.02,inactive: -0.027,inactive: 0.026,inactive: -0.001,inactive: -0.019,inactive: -0.003,inactive: -0.013
SCML2 (UniProt Q9UQR0),inactive: -0.011,inactive: 0.028,inactive: 0.004,inactive: 0.034,inactive: -0.011,inactive: 0.011,inactive: -0.012,inactive: -0.015,inactive: -0.006,inactive: 0.109,inactive: 0.033,inactive: -0.006,inactive: -0.028,inactive: -0.007,inactive: -0.018,inactive: 0.02,inactive: 0.033,inactive: 0.032,inactive: 0.064,inactive: -0.067
SARG (UniProt Q9BW04),inactive: 0.016,inactive: -0.005,inactive: 0.008,inactive: 0.002,inactive: 0.023,inactive: -0.012,inactive: -0.033,inactive: 0.005,inactive: -0.029,inactive: -0.06,inactive: 0.035,inactive: 0.019,inactive: -0.01,inactive: 0.092,inactive: 0.024,inactive: -0.013,inactive: 0.002,inactive: 0.012,inactive: 0.006,inactive: -0.014
SEMA4B (UniProt Q9NPR2),inactive: 0.097,inactive: -0.054,inactive: -0.099,inactive: -0.021,inactive: 0.037,inactive: 0.093,inactive: -0.092,inactive: -0.042,inactive: 0.023,inactive: 0.011,inactive: 0.044,inactive: 0,inactive: -0.072,inactive: 0.07,inactive: -0.127,inactive: -0.036,inactive: 0.069,inactive: 0.003,inactive: 0.122,inactive: 0.084
SECISBP2L (UniProt Q93073),inactive: -0.091,inactive: -0.016,inactive: -0.024,inactive: 0.021,inactive: 0.014,inactive: -0.062,inactive: -0.172,inactive: -0.057,inactive: 0.027,inactive: 0.074,inactive: -0.079,inactive: 0.132,inactive: -0.141,inactive: 0.089,inactive: 0.02,inactive: -0.011,inactive: -0.038,inactive: 0.06,inactive: -0.002,inactive: 0.101
SCAMP2 (UniProt O15127),inactive: -0.019,inactive: -0.034,inactive: -0.061,inactive: -0.103,inactive: -0.017,inactive: 0.027,inactive: -0.029,inactive: 0.053,inactive: -0.054,inactive: -0.056,inactive: -0.054,inactive: 0.004,inactive: 0.057,inactive: -0.016,inactive: -0.023,inactive: -0.067,inactive: 0.014,inactive: 0.053,inactive: 0.01,inactive: -0.014
SCAF8 (UniProt Q9UPN6),inactive: 0.026,inactive: -0.006,inactive: 0.02,inactive: -0.002,inactive: 0.016,inactive: -0.001,inactive: 0.001,inactive: -0.074,inactive: 0.01,inactive: 0.024,inactive: 0.002,inactive: 0.01,inactive: 0.039,inactive: 0.035,inactive: -0.008,inactive: 0.043,inactive: 0.002,inactive: 0,inactive: 0.009,inactive: -0.038
SDCCAG8 (UniProt Q86SQ7),inactive: 0.035,inactive: 0.105,inactive: -0.028,inactive: -0.017,inactive: -0.009,inactive: 0.088,inactive: -0.026,inactive: 0.063,inactive: 0.033,inactive: 0.02,inactive: 0.021,inactive: -0.035,inactive: 0.045,inactive: 0.032,inactive: 0.13,inactive: -0.053,inactive: -0.006,inactive: 0.01,inactive: -0.009,inactive: -0.026
SEC16A isoform 5 (UniProt O15027),inactive: 0.035,inactive: -0.021,inactive: -0.013,inactive: 0.015,inactive: 0.01,inactive: 0.019,inactive: 0.004,inactive: -0.121,inactive: 0.011,inactive: -0.031,inactive: 0.03,inactive: 0.019,inactive: 0.021,inactive: 0.038,inactive: -0.028,inactive: 0.006,inactive: 0.008,inactive: -0.037,inactive: 0.013,inactive: -0.01
SELENOS (UniProt Q9BQE4),inactive: 0.071,inactive: -0.001,inactive: -0.006,inactive: 0.002,inactive: 0.02,inactive: 0.021,inactive: -0.042,inactive: -0.012,inactive: 0.031,inactive: -0.048,inactive: 0.097,inactive: -0.015,inactive: 0.003,inactive: -0.036,inactive: 0.066,inactive: 0.02,inactive: -0.059,inactive: 0.005,inactive: -0.047,inactive: 0.042
SCO2 (UniProt O43819),inactive: -0.021,inactive: -0.065,inactive: -0.02,inactive: -0.142,inactive: 0,inactive: -0.258,inactive: -0.009,inactive: 0.017,inactive: 0.01,inactive: -0.117,inactive: -0.064,inactive: 0.054,inactive: 0.019,inactive: -0.075,inactive: -0.028,inactive: -0.087,inactive: -0.235,inactive: 0.076,inactive: -0.046,inactive: 0.003
SCRIB (UniProt Q14160),inactive: 0.043,inactive: 0.023,inactive: 0.02,inactive: 0.003,inactive: -0.046,inactive: -0.003,inactive: 0.009,inactive: 0.013,inactive: 0.034,inactive: -0.024,inactive: 0.023,inactive: -0.007,inactive: 0.006,inactive: -0.039,inactive: -0.019,inactive: 0,inactive: -0.049,inactive: -0.027,inactive: 0.027,inactive: 0.011
SDHC (UniProt Q99643),inactive: 0.033,inactive: -0.012,inactive: 0.064,inactive: -0.035,inactive: -0.05,inactive: -0.015,inactive: -0.013,inactive: -0.026,inactive: 0.023,inactive: 0.044,inactive: -0.035,inactive: -0.022,inactive: 0.031,inactive: -0.089,inactive: 0.044,inactive: 0.04,active: -0.307,inactive: 0.156,inactive: 0.063,inactive: 0.062
SCARB1 isoform 2 (UniProt Q8WTV0),inactive: 0.035,inactive: -0.005,inactive: 0.024,inactive: -0.038,inactive: -0.015,inactive: -0.009,inactive: 0.014,inactive: 0.05,inactive: 0.012,inactive: -0.017,inactive: -0.001,inactive: 0.004,inactive: -0.035,inactive: -0.014,inactive: 0.01,inactive: -0.002,inactive: -0.077,inactive: 0.042,inactive: 0,inactive: 0.015
SEPHS1 (UniProt P49903),inactive: 0.005,inactive: 0.012,inactive: -0.007,inactive: -0.017,inactive: -0.018,inactive: -0.004,inactive: -0.018,inactive: 0.026,inactive: -0.006,inactive: 0.002,inactive: 0.031,inactive: -0.003,inactive: 0.075,inactive: 0.024,inactive: -0.002,inactive: -0.012,inactive: 0.044,inactive: 0.029,inactive: -0.004,inactive: -0.045
SEC13 isoform 3 (UniProt P55735),inactive: -0.084,inactive: -0.025,inactive: 0.024,inactive: -0.01,inactive: -0.015,inactive: -0.005,inactive: 0.034,inactive: -0.032,inactive: 0.031,inactive: -0.014,inactive: -0.001,inactive: -0.004,inactive: -0.031,inactive: -0.013,inactive: 0.007,inactive: 0.003,active: 0.507,inactive: -0.042,inactive: -0.027,inactive: -0.015
